Assay results taken from publication PMC5796995 (Oncotarget, 2017).

Experiment: in vitro
Conditions: human, Caco-2
Method: Assay plates containing 12 wells of 21-day Caco-2 monolayers were provided by MB Biosciences. Monolayer integrity was verified using transepithelial electrical resistance measurements (TEER) prior to assay. Treatment solutions of AFB1, AFB2a, and AFB2a-Arg were prepared in the provided Hank's buffered salt solution (HBSS) with a pH of 7.4 and a final DMSO concentration of 0.2%. Caco-2 monolayers were first rinsed with HBSS and then the apical chamber was filled with 500 μL of test compound solution while the basal chamber was filled with 1500 μL of blank HBSS (both chambers were kept at pH 7.4). Plates were incubated at 37°C for 2 hours to allow compound equilibration. Compound concentration was measured at t = 0 hrs and t = 2 hours by HPLC-MS. Permeability (Papp) was calculated as follows: Papp=dQ/dt×1/A×C0
Where dQ/dt is the amount of translocated material over incubation time (nmol/s), A is the area of the insert (cm^2), and C0 is the initial concentration of the test compound applied. […] ER was calculated as follows: ER=Papp(Basal→Apical)/Papp(Apical→Basal)

Compound: CC(C)NCC(O)COc1ccc(CC(N)=O)cc1 (stereo not shown) [atenolol, reference compound]
- Papp: < 0.5 ×10⁻⁶ cm/s
